Test results: paper doi:10.1101/2025.07.28.25332029
Results are given in words; binding and its absence hold for the method and conditions named. Binding seen in cells or lysates may run through a third protein. Some binding calls cover weakened binding; strength is not graded here.

Target: T1, CIDEC short isoform (CIDEC-S) (human), Q96AQ7
T1 chain: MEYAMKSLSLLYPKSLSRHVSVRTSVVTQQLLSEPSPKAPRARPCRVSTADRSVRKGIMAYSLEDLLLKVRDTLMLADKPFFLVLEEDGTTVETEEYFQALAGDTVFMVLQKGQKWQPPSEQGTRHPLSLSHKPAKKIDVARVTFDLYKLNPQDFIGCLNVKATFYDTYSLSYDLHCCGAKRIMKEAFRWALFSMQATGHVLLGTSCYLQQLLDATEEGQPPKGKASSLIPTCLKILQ
Experiment: co-IP
Settings: remark: other sources report otherwise

binding: binds
B1: CIDEC short isoform (CIDEC-S), Q96AQ7-1 1-238 (protein)
chain: T1 chain
